These are yes or no findings as the source states them, for the method shown. Binding seen in cells or lysates may run through a third protein. Some binding calls cover weakened binding; strength is not graded here. Each block holds one molecule with its values, some of them ahead of it.
Assays:
[1] = biological target: GST-Sp8 (GST-Sp8FL) (mouse) (UniProt Q8BMJ8); experiment: pull-down; GST or GST-Sp8 proteins held on glutathione-sepharose beads; incubated with [35S]-methionine-labelled in vitro translated Emx2 proteins in 0.4 ml binding buffer (0.1 M NaCl, 0.01% NP-40), 2 hours at 4°C; five washes; 15% SDS-PAGE and autoradiography; only the target purified
[2] = biological target: GST-Sp8 lacking zinc fingers (GST-Sp8ΔZn) (mouse) (UniProt Q8BMJ8); experiment: as above

By UniProt entry, the sequences of proteins in these tests, tags left out. Where a name states a change or a piece, a line headed by the entry shows the natural chain unless it says otherwise. Residues count along the entry.
UniProt Q8BMJ8: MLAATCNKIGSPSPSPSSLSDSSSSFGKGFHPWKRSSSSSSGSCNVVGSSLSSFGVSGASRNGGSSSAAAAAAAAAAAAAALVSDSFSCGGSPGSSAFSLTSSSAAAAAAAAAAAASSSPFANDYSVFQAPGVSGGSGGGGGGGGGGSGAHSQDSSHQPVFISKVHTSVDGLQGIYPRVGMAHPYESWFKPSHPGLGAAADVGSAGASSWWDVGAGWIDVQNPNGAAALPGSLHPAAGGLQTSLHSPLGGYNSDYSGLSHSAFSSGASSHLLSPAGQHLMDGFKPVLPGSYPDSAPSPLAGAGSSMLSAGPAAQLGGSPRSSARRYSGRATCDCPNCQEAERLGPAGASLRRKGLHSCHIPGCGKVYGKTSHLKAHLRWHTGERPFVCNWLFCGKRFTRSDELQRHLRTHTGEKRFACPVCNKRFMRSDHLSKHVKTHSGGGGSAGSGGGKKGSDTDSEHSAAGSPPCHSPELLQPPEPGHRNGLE
GST-Sp8 lacking zinc fingers (GST-Sp8ΔZn): residues 1-355 of Q8BMJ8

- binding [1]: binds
- binding [2]: binds
Molecule: Full-length Emx2 protein (Emx2FL) (from UniProt Q04744 1-253)

- binding [1]: no binding
- binding [2]: no binding
B1: Emx2 lacking the homeobox (Emx2ΔHox) (domain or fragment, UniProt Q04744 1-144)
chain: MFQPAPKRCFTIESLVAKDSPLPASRSEDPIRPAALSYANSSPINPFLNGFHSAAAAAAAGRGVYSNPDLVFAEAVSHPPNPAVPVHPVPPPHALAAHPLPSSHSPHPLFASQQRDPSTFYPWLIHRYRYLGHRFQGNDTSPES
modifications: [35S]-methionine labelled
